Source: PubChem BioAssay AID1053208 (Peter MacCallum Cancer Centre, 2014)
The whole screen tested about 17,000 reagents; shown is an unselected part. Over the whole deposit, 788 (4.7%) are marked active. 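Calls rest on z-score classes alone; an extra cut-off of viability at most 70% of control was not applied to them.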 Reagents against one gene are numbered here. No sequences are given here.

Aim: 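Genes whose silencing cuts survival of bone tumour cells only with doxorubicin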 (primary screen)
System: mouse osteosarcoma cells, early-passage culture from an engineered mouse model of fibroblastic bone tumour
Knock-down reagent: siRNA pool against mouse genes, 40 nM
Time to read-out: about 120 h (48 h before drug, then 72 h with drug)
Challenge: doxorubicin 100 nM for 72 h, roughly 30-40% inhibitory dose
Measurement: 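Viability read as ATP luminescence after 72 h of 100 nM doxorubicin or none, duplicate wells averaged, scaled to non-targeting siRNA, then expressed as robust z-scores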
Direction: viability z-score with doxorubicin and doxorubicin viability vs non-targeting: higher = more viable cells under doxorubicin; viability z-score without drug: higher = more viable cells with knock-down alone; z-score of drug to no-drug ratio: higher = less drug sensitisation by knock-down
Call rule: 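a pool counts as active when its viability z-score with doxorubicin is -2 or below and its z-score without drug lies between -2 and 2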

Gene | reagent | combined z-score class | viability z-score with doxorubicin | viability z-score without drug | z-score of drug to no-drug ratio | doxorubicin viability vs non-targeting | outcome
Helt (helt bHLH transcription factor) | 1 | no change with or without drug | 1.35 | 1.18 | 0.67 | 1.06 | inactive
Tyro3 (TYRO3 protein tyrosine kinase 3) | 1 | no change with or without drug | -1.12 | 0.17 | -1.12 | 0.84 | inactive
Plpbp (pyridoxal phosphate binding protein) | 1 | no change with or without drug | 0.56 | 0.84 | 0.11 | 0.99 | inactive
Kctd15 (potassium channel tetramerisation domain containing 15) | 1 | no change with or without drug | -0.67 | -0.51 | -0.22 | 0.88 | inactive
Stfa3 (stefin A3) | 1 | high cell count with and without drug | 2.81 | 2.19 | 1.35 | 1.19 | inactive
Zfp61 (zinc finger protein 61) | 1 | no change with or without drug | -1.35 | -0.17 | -1.24 | 0.82 | inactive
Sephs2 (selenophosphate synthetase 2) | 1 | no change with or without drug | -0.34 | 0.84 | -0.79 | 0.91 | inactive
Gfi1 (growth factor independent 1 transcription repressor) | 1 | low cell count with doxorubicin only | -2.02 | -0.84 | -1.57 | 0.76 | active
Cbfb (core binding factor beta) | 1 | no change with or without drug | 0.9 | 0.17 | 0.9 | 1.02 | inactive
Clcn4 (chloride channel, voltage-sensitive 4) | 1 | low cell count with doxorubicin only | -2.7 | -1.85 | -1.69 | 0.7 | active
Rngtt (RNA guanylyltransferase and 5'-phosphatase) | 1 | no change with or without drug | -0.22 | -1.18 | 0.79 | 0.92 | inactive
Rbp2 (retinol binding protein 2, cellular) | 1 | no change with or without drug | -1.69 | 0.51 | -1.91 | 0.79 | inactive
Ndrg2 (N-myc downstream regulated gene 2) | 1 | no change with or without drug | 1.35 | 0.51 | 1.12 | 1.06 | inactive
Slc25a38 | 1 | no change with or without drug | -0.34 | -1.01 | 0.45 | 0.91 | inactive
Idua (iduronidase, alpha-L) | 1 | no change with or without drug | -0.34 | 0.17 | -0.34 | 0.91 | inactive
Cgrrf1 (cell growth regulator with ring finger domain 1) | 1 | no change with or without drug | -0.67 | -1.69 | 0.67 | 0.88 | inactive
Cp (ceruloplasmin) | 1 | no change with or without drug | -0.9 | -1.01 | -0.11 | 0.86 | inactive
St6galnac2 | 1 | high cell count without drug only | -0.56 | 2.36 | -1.8 | 0.89 | inactive
Rdh1 (retinol dehydrogenase 1 (all trans)) | 1 | no change with or without drug | -1.24 | -0.51 | -0.9 | 0.83 | inactive
Nek1 (NIMA (never in mitosis gene a)-related expressed kinase 1) | 1 | high cell count with doxorubicin only | 2.25 | 0.84 | 1.8 | 1.14 | inactive
Cpxm2 (carboxypeptidase X, M14 family member 2) | 1 | no change with or without drug | 1.35 | 0.34 | 1.24 | 1.06 | inactive
Fv1 (Friend virus susceptibility 1) | 1 | no change with or without drug | 0.22 | 0 | 0.34 | 0.96 | inactive
Ppp1r13b (protein phosphatase 1, regulatory subunit 13B) | 1 | no change with or without drug | 1.12 | -0.51 | 1.69 | 1.04 | inactive
Apeh (acylpeptide hydrolase) | 1 | no change with or without drug | 1.01 | 0.67 | 0.67 | 1.03 | inactive
C9 (complement component 9) | 1 | no change with or without drug | -0.45 | 1.35 | -1.24 | 0.9 | inactive
Nagk (N-acetylglucosamine kinase) | 1 | no change with or without drug | 0.56 | 1.52 | -0.34 | 0.99 | inactive
Coro6 (coronin 6) | 1 | no change with or without drug | -1.01 | 0.84 | -1.46 | 0.85 | inactive
Cib1 (calcium and integrin binding 1) | 1 | no change with or without drug | 0 | 0 | 0.11 | 0.94 | inactive
Trmt112 (tRNA methyltransferase 11-2) | 1 | no change with or without drug | 0.22 | 1.01 | -0.34 | 0.96 | inactive
Ttc34 (tetratricopeptide repeat domain 34) | 1 | no change with or without drug | 0.67 | 0.51 | 0.45 | 1 | inactive
Sox4 (SRY (sex determining region Y)-box 4) | 1 | no change with or without drug | 0.11 | 0.17 | 0.11 | 0.95 | inactive
Rpp40 (ribonuclease P 40 subunit) | 1 | no change with or without drug | -1.12 | -0.34 | -0.9 | 0.84 | inactive
Ghrl (ghrelin) | 1 | low cell count with doxorubicin only | -2.25 | -0.51 | -2.02 | 0.74 | active
Or1m1 (olfactory receptor family 1 subfamily M member 1) | 1 | no change with or without drug | -0.67 | 0.67 | -1.01 | 0.88 | inactive
Apool (apolipoprotein O-like) | 1 | no change with or without drug | 1.24 | 1.52 | 0.34 | 1.05 | inactive
Tmem132a (transmembrane protein 132A) | 1 | no change with or without drug | -1.35 | -1.69 | -0.22 | 0.82 | inactive
Or2a14 (olfactory receptor family 2 subfamily A member 14) | 1 | no change with or without drug | -0.22 | -0.84 | 0.45 | 0.92 | inactive
Tas2r131 (taste receptor, type 2, member 131) | 1 | no change with or without drug | -0.67 | -0.17 | -0.45 | 0.88 | inactive
Ushbp1 (USH1 protein network component harmonin binding protein 1) | 1 | no change with or without drug | -1.12 | -0.67 | -0.67 | 0.84 | inactive
Or51a5 (olfactory receptor family 51 subfamily A member 5) | 1 | no change with or without drug | -0.22 | 0.17 | -0.22 | 0.92 | inactive
Lrch4 | 1 | no change with or without drug | -0.9 | -0.51 | -0.56 | 0.86 | inactive
Pgbd5 (piggyBac transposable element derived 5) | 1 | no change with or without drug | -0.67 | -0.84 | 0 | 0.88 | inactive
Dnai3 (dynein axonemal intermediate chain 3) | 1 | no change with or without drug | 1.35 | 1.85 | 0.22 | 1.06 | inactive
Amacr (alpha-methylacyl-CoA racemase) | 1 | high cell count with doxorubicin only | 2.47 | 0.34 | 2.47 | 1.16 | inactive
Srd5a3 (steroid 5 alpha-reductase 3) | 1 | high cell count with doxorubicin only | 3.26 | 0.51 | 3.15 | 1.23 | inactive
Eef2k (eukaryotic elongation factor-2 kinase) | 1 | no change with or without drug | -0.22 | -1.52 | 1.01 | 0.92 | inactive
Atp9a (ATPase, class II, type 9A) | 1 | no change with or without drug | -0.22 | 0.51 | -0.45 | 0.92 | inactive
Or4c121 (olfactory receptor family 4 subfamily C member 121) | 1 | high cell count without drug only | 0.11 | 2.53 | -1.35 | 0.95 | inactive
Tmc7 (transmembrane channel-like gene family 7) | 1 | no change with or without drug | 1.01 | 0.17 | 1.01 | 1.03 | inactive
Mmp12 (matrix metallopeptidase 12) | 1 | no change with or without drug | -0.56 | 0.17 | -0.56 | 0.89 | inactive
Siglec1 (sialic acid binding Ig-like lectin 1, sialoadhesin) | 1 | no change with or without drug | 1.69 | 0.51 | 1.46 | 1.09 | inactive
Arl13b (ADP-ribosylation factor-like 13B) | 1 | no change with or without drug | 0 | 1.52 | -0.9 | 0.94 | inactive
Brcc3 (BRCA1/BRCA2-containing complex, subunit 3) | 1 | no change with or without drug | 0.9 | 1.52 | 0 | 1.02 | inactive
Adam8 (a disintegrin and metallopeptidase domain 8) | 1 | no change with or without drug | -0.11 | 0.67 | -0.45 | 0.93 | inactive
Plxnb1 (plexin B1) | 1 | no change with or without drug | 0.22 | -1.18 | 1.24 | 0.96 | inactive
Gm14296 (predicted gene 14296) | 1 | no change with or without drug | -0.67 | 0.17 | -0.67 | 0.88 | inactive
Gm14296 (predicted gene 14296) | 2 | no change with or without drug | 0.22 | 0.34 | 0.11 | 0.96 | inactive
Or5b96 (olfactory receptor family 5 subfamily B member 96) | 1 | no change with or without drug | 0.22 | 0.67 | -0.11 | 0.96 | inactive
Snapc5 (small nuclear RNA activating complex, polypeptide 5) | 1 | high cell count with and without drug | 2.02 | 2.36 | 0.56 | 1.12 | inactive
Clic4 (chloride intracellular channel 4) | 1 | no change with or without drug | 0.9 | -0.17 | 1.24 | 1.02 | inactive
Prkaa2 (protein kinase, AMP-activated, alpha 2 catalytic subunit) | 1 | no change with or without drug | 0 | -0.84 | 0.67 | 0.94 | inactive
Gxylt2 (glucoside xylosyltransferase 2) | 1 | no change with or without drug | -0.22 | -1.18 | 0.79 | 0.92 | inactive
S100a4 (S100 calcium binding protein A4) | 1 | no change with or without drug | -0.9 | 1.18 | -1.57 | 0.86 | inactive
